Experimental data taken from article PMC12284848, “Safe and Efficient Intracellular Release of SN38 via Lysosomal-Responsive SN38‑G Loaded Liposomes” (ACS Applied Bio Materials, 2025).

Assay: Drug loading into calcium acetate liposomes (HPLC and Bartlett's phospholipid assay)
Conditions: for loading and conversion (encapsulation efficiency), % of the initial amounts: 65% starting drug-to-phospholipids molar ratio; for loading and conversion (encapsulation efficiency), % of the initial amounts / final drug-to-phospholipids ratio: 70 °C, 60 min; for final drug-to-phospholipids ratio: molar ratio, ester loaded at 65%

SMILES	loading and conversion (encapsulation efficiency), % of the initial amounts	final drug-to-phospholipids ratio	drug-to-phospholipids molar ratio (parental SN38 loaded with 20% DMSO)
CCOC(=O)[C@H]1O[C@@H](Oc2ccc3nc4c(c(CC)c3c2)Cn2c-4cc3c(c2=O)COC(=O)[C@]3(O)CC)[C@H](O)[C@@H](O)[C@@H]1O [SN38-G^eth]	94.9%	61.7%	–
CCc1c2c(nc3ccc(O)cc13)-c1cc3c(c(=O)n1C2)COC(=O)[C@]3(O)CC [SN38, 7-ethyl-10-hydroxycamptothecin]	–	–	10.01%
CCc1c2c(nc3ccc(O[C@@H]4O[C@H](C(=O)OC)[C@@H](O)[C@H](O)[C@H]4O)cc13)-c1cc3c(c(=O)n1C2)COC(=O)[C@]3(O)CC [SN38-G^met]	89.9%	58.6%	–
